Measurements: publication PMC13346543
Construct, isoform or probe ends are uncertain for at least one entry. No signal at the amounts used counts as a negative. Tags and fusion partners may be left off the protein sequences shown.

Columns and labels:
[1] = target: T1, GST-NRF1 (UniProt Q16656); assay: EMSA; conditions: Chemiluminescent EMSA kit (Beyotime), manufacturer's instructions; pH and temperature not stated; recombinant protein; residues 1-503; protein details: N-terminal GST (pGEX-4T-1); label: 3'-biotin
T1 sequence (looked up): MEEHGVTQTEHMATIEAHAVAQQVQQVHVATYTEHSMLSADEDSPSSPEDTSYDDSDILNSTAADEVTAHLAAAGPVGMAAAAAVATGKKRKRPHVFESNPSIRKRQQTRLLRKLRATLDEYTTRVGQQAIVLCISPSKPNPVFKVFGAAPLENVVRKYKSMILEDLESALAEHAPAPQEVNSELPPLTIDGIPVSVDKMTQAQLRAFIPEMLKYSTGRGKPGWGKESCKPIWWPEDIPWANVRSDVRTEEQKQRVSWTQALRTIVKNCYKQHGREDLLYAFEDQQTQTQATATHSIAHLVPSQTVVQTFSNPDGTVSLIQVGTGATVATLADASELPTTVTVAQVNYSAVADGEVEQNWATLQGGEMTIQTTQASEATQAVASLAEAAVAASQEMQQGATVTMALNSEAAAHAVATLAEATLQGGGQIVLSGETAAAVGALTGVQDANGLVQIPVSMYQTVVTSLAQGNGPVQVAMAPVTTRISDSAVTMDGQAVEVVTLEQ

[2] = target: T1, GST-NRF1; assay: competition with a labelled probe; conditions: 10x cold competitor vs biotin EZH2-bio1, does not block; Chemiluminescent EMSA kit (Beyotime), manufacturer's instructions; pH and temperature not stated; recombinant protein; residues 1-503; protein details: N-terminal GST (pGEX-4T-1)

Sequence | binding result [1] | binding result [2]
GCGCGCGGGGAAACGAGCGC (double strand) [EZH2-bio3] | no binding | 
ATCGCGCCATTGCACTCCAG (double strand) [EZH2-bio2] | no binding | 
TTACAGCGAACCCCGCCGCTGGAGGTCAGTCCGTTGGTCTGCGCC (double strand) [EZH2-mut cold] |  | no binding
